SMILES strings stand for the structures. The list shows a part of the results. The main result of the screen is listed elsewhere. These columns were measured beside it and carry no call. Compounds called inactive in the main read-out are mostly missing here. Words in brackets tell the shape of the fitted curve; partial curves, single points and poor fits give uncertain potencies.

The experiment in a line: qHTS Assay to Find Inhibitors of Chronic Active B-Cell Receptor Signaling. The conditions noted are these: ABC-DLBCL IkBa-CBG/CBR reporter, luminescence ratio (green luciferase fused to IkBa over red control in TMD8 lymphoma cells), 4 h. In a few lines: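 Compounds up to 46 uM were incubated four hours with TMD8 cells whose green CBG68 luciferase is fused to IkappaBalpha; red CBR luminescence normalised the signal, and concentration-effect curves were fitted to fusion, red and ratio data.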
(In general: In qHTS, concentration-response curves come from the screen itself.)

Setting [1] is: measured here: CBR red luminescence, cell number.
Where [2] appears, read: measured here: IkBa-CBG green luminescence.

For orientation: AC50 means the concentration at which the activity in the assay is half-maximal. On to `CN(C)N1C(N)=C(C#N)C(c2ccsc2)C2=C1CCCC2=O` (stereo not given), for which the AC50 under setting [1] was 29.1 µM [falling, single point].
On to `Oc1ccc(N=Nc2nc(-c3ccccc3)c(-c3ccccc3)[nH]2)cc1`, for which the AC50 under setting [2] is 4.61 µM [falling, partial curve, poor fit].
Turning to `CCOc1ccc(S(=O)(=O)Nc2ccc3oc(C)c(C(=O)OCCOC)c3c2)cc1`, the AC50 is 28.2 µM [rising, single point] under setting [1] and 15.8 µM [falling, partial curve] under setting [2].
On to `COc1ccc(Cl)cc1N1C(=O)C2CCCN2C1c1ccc(F)cc1` (stereo not given), for which the AC50 under setting [1] is 6.51 µM [falling, single point].
Same read-out and setting: the value for `CCN1C(=O)CC(NCc2ccc3c(c2)OCO3)C1=O` (stereo not given) was 2.06 µM [rising, partial curve, poor fit]; that for `CCOc1nc(-c2ccc(OC)cc2)ccc1-c1noc(C)n1` was 3.66 µM [rising, full curve].
In the case of `CC(=O)n1c2ccccc2c2c1c1ccccc1n2C`, the AC50 under setting [1] is 2.51 µM [falling, full curve].
Take `COc1cc(NS(=O)(=O)c2c(C)[nH]c(C)c2C(=O)N2CCCC2)cc(OC)c1OC`: the AC50 under setting [1] was 3.16 µM [rising, single point].
Regarding `Cc1ccc(NC(=O)COC(=O)[C@@H]2CCCN2C(=O)c2cccs2)cc1S(=O)(=O)N(C)C`, under setting [1], the AC50 is 8.91 µM [rising, partial curve, poor fit].
Same read-out and setting: the value for `COc1cc2c(cc1OC)-c1n[nH]c(=S)n1C(C)(C)C2` was 4.47 µM [rising, full curve, poor fit]; that for `COc1ccc(-c2cc3cc(C(=O)O)ccn3c2C(=O)c2ccccc2)cc1` was 31.6 µM [rising, single point]; that for `COCCNC(=O)C(c1ccco1)N(C(=O)Cn1nnc2ccccc21)c1cccc(C)c1C` (stereo not given) was 3.66 µM [rising, partial curve, poor fit].
As for `COCC(C)NC(=O)c1cc(-c2ccccc2OC)on1` (stereo not given), the AC50 under setting [1] is 1 µM [falling, full curve].
Same read-out and setting: the value for `O=C(N/N=C/c1ccc(Br)s1)c1cccc([N+](=O)[O-])c1` was 29.1 µM [rising, single point].
For the compound `CCOC(=O)c1ncn2c1CN(C)C(=O)c1cc(F)ccc1-2`, the AC50 under setting [1] is 4.61 µM [rising, full curve].
The same measure, in the same setting: the figure for `COCC(=O)NCCc1nc(-c2ccccc2)cs1` is 5.62 µM [rising, single point].
On to `O=C(NCc1ccc(-c2nc3ccccc3s2)cc1)c1ccc(Br)o1`, for which the AC50 under setting [1] is 10.3 µM [rising, partial curve].
`COc1cc(/C=C/c2ccc(O)cc2)cc(OC)c1`: the AC50 under setting [2] is 11.2 µM [falling, partial curve].
Take `CCOC(=O)C1=C(C)c2ccccc2N(S(=O)(=O)C(F)(F)F)C1C(=O)OCC` (stereo not given): the AC50 under setting [1] is 23.1 µM [rising, single point].
For the compound `O=[N+]([O-])c1ccc(Sc2nc3ccccc3o2)c([N+](=O)[O-])c1`, the concentration at half-maximal activity (AC50) by setting is: under setting [1], 0.00517 µM [rising, full curve, poor fit]; under setting [2], 5.8 µM [falling, full curve].
For `C/C(=N\NC(=O)CNC(=O)c1cccs1)c1ccc(Cl)c(Cl)c1`, under setting [1], the AC50 is 6.31 µM [rising, partial curve, poor fit].
On the same count and under the same terms, the value for `CCn1ncc2c1C(=O)NC1c3ccccc3C(=O)N21` (stereo not given) was 15.8 µM [falling, single point]; that for `CCc1ccc(CN(C)C(=O)c2cc(COc3cccc(C(F)(F)F)c3)on2)nc1` was 0.0891 µM [falling, full curve, poor fit].
As for `CC(=O)NC1=NN(C(C)=O)C(C)(CS(=O)(=O)c2ccc3ccccc3c2)S1` (stereo not given), the AC50 under setting [1] was 32.6 µM [rising, partial curve, poor fit].
Same read-out and setting: the value for `CCOC(=O)c1ccc(NC(=O)Nc2ccc3c(c2)OCCO3)cc1` was 16.4 µM [falling, partial curve]; that for `CCOC(=O)c1c(NC(=O)c2ccoc2C)sc(C(=O)N(C)C)c1C` was 29.1 µM [falling, single point].
Still for that read-out and setting: the figure for `O=C(CSc1nc2nn(-c3ccccc3)c(=O)c-2c2n1CCCCC2)c1ccc(O)c(O)c1` is 20.6 µM [rising, single point].
In the case of `O=C(Nc1ccccc1Oc1ccccc1)c1cc([N+](=O)[O-])ccc1Cl`, the concentration at half-maximal activity (AC50) under setting [1] was 5.17 µM [falling, partial curve].
For the compound `NCCCNc1nc(N)c([N+](=O)[O-])c(NC2CCCCC2)n1`, the half-maximal activity concentration (AC50) under setting [1] is 20 µM [falling, partial curve, poor fit].
On the same count and under the same terms, the figure for `COc1ccc(C2(C)NC(=O)N(CC(=O)NCc3ccccc3F)C2=O)cc1` (stereo not given) is 5.62 µM [rising, single point].
Same read-out and setting: the figure for `Nc1cc(=O)[nH]c(SCCNS(=O)(=O)c2ccccc2)n1` is 15.8 µM [rising, partial curve, poor fit]; for `Cc1ccnc(NC(=O)/C=C/c2cccs2)c1` it is 5.8 µM [falling, full curve]; for `N/C(Cc1nc(-c2ccc(F)cc2)cs1)=N\O` it is 35.5 µM [rising, single point].
Still for that read-out and setting: the figure for `O=C(Nc1ccccc1)Nc1nnc(-c2cccs2)s1` is 0.00411 µM [rising, full curve, poor fit]; for `CC/C(=N/O)c1cnnc(SC)n1` it is 5.8 µM [rising, single point]; for `O=C(O)C1CCN(C(=O)c2cc(F)cc3c2OCOC3)CC1` it is 28.2 µM [falling, single point].
As for `O=c1c2ccccc2nc(COc2ccccc2)n1/N=C/c1cc([N+](=O)[O-])ccc1O`, under setting [1], the AC50 is 1.46 µM [falling, full curve].
As to `CCC(=O)Nc1ccc(Cl)c(NC(=O)c2c(OC)cccc2OC)c1`, under setting [2], the AC50 is 11.2 µM [falling, partial curve, poor fit].
For the compound `CN(C)c1ccc(C(=O)OCC(=O)N2CCCC2)cc1`, the AC50 under setting [1] was 35.5 µM [falling, single point].
On the same count and under the same terms, the value for `COc1ccc(-c2nnc(-c3cccs3)o2)cc1OC` was 25.9 µM [falling, single point].
As for `Cc1cc(C)n(Cc2cccc(C(=O)N/N=C/c3cccnc3)c2)n1`, the half-maximal activity concentration (AC50) under setting [1] was 31.6 µM [falling, single point].
In the case of `Cc1ccc(C)c(/C=N/NC(=S)NC(C)C)c1`, the AC50 under setting [1] was 29.1 µM [rising, single point] and the AC50 under setting [2] was 20.6 µM [falling, partial curve, poor fit].
Regarding `CC1(C)CC(=O)C2=C(C1)Nc1ccccc1NC2c1cccs1` (stereo not given), the concentration at half-maximal activity (AC50) under setting [1] is 22.4 µM [rising, single point].
Still for that read-out and setting: the value for `CC(NC(=O)CCC(=O)c1ccccc1)c1ccc(F)cc1` (stereo not given) was 1.16 µM [rising, partial curve, poor fit].
On to `COc1cccc(/C=N/NC(=S)Nc2cccc(S(=O)(=O)N(C)C)c2)c1`, for which the AC50 reads like this: under setting [1], 1.26 µM [falling, full curve]; under setting [2], 3.98 µM [falling, full curve, poor fit].
Turning to `O=C(CCCCCN1C(=O)[C@@H]2Cc3ccccc3CN2C1=O)Nc1cccc(F)c1`, the concentration at half-maximal activity (AC50) under setting [1] is 35.5 µM [falling, single point].
Take `CC1(c2ccc(Cl)cc2)NC(=S)N2C1NC(=S)N2c1ccccc1` (stereo not given): under setting [1], the AC50 is 35.5 µM [falling, single point].
Same read-out and setting: the value for `Cc1ccc(N2Cc3ccccc3C2=S)cc1` was 20 µM [rising, partial curve, poor fit]; that for `CN(C)CCCNS(=O)(=O)c1ccc(Oc2ncc(C(F)(F)F)cc2Cl)cc1` was 18.4 µM [falling, partial curve].
On the same count and under the same terms, the figure for `O=C(CNC(=O)c1cccs1)N/N=C/c1c[nH]c2ccccc12` is 5.62 µM [falling, partial curve]; for `CC(NC(=O)/C(C#N)=C/c1ccc(N2CCOCC2)cc1)c1ccccc1` (stereo not given) it is 6.31 µM [falling, full curve, poor fit].
Still for that read-out and setting: the figure for `CCn1c(=O)c(C(=O)CN2CC(C)OC(C)C2)c(N)n(Cc2ccccc2)c1=O` (stereo not given) is 3.55 µM [rising, single point].
Turning to `Cc1ccc2nc(Nc3ccc(F)cc3)c3nncn3c2c1`, the concentration at half-maximal activity (AC50) under setting [1] is 1.41 µM [rising, full curve].
On the same count and under the same terms, the value for `O=C(COc1ccc(Br)cc1Cl)c1ccc[nH]1` was 10 µM [falling, single point]; that for `CS(=O)(=O)/C(C#N)=C\c1cnc(S(=O)(=O)c2ccccc2)s1` was 35.5 µM [falling, single point].
On to `C=CCNC(=S)NNC(=O)COc1ccc2cc(Br)ccc2c1`, for which the AC50 is, setting by setting: under setting [1], 25.1 µM [falling, single point]; under setting [2], 10 µM [falling, partial curve, poor fit].
For `O=C(NC1CC(=O)N(c2ccc(F)cc2)C1)c1cc2ccccc2o1` (stereo not given), the half-maximal activity concentration (AC50) under setting [1] is 14.1 µM [rising, partial curve, poor fit].
`O=C(Nc1cccc(C(F)(F)F)c1)Oc1ccc(Cl)c2cccnc12`: the AC50 under setting [1] was 4.47 µM [rising, partial curve, poor fit] and the AC50 under setting [2] is 5.62 µM [falling, single point].
On to `O=C(Nc1ccccc1F)c1ccncc1`, for which the concentration at half-maximal activity (AC50) under setting [1] was 4.11 µM [falling, partial curve, poor fit].
Turning to `CCOC(=O)C1CCN(C(=O)c2sc3nc(-c4ccccc4)cn3c2C)CC1`, the AC50 under setting [1] was 32.6 µM [falling, single point].
On the same count and under the same terms, the figure for `Cc1ccn2cc(-c3ccc(Br)cc3)nc2c1` is 12.6 µM [falling, partial curve].
On the same count and under the same terms, the figure for `Cc1nc2c(C(=O)NCc3ccccc3Cl)cnn2c(C)c1Cc1c(F)cccc1Cl` is 2.51 µM [rising, partial curve, poor fit].
`CCc1ccc(C(=O)COC(=O)c2ccco2)cc1`: under setting [1], the AC50 is 4.47 µM [rising, full curve].
Consider `O=C1c2ccccc2C(=O)N1OCCOCCOCCBr`, for which, under setting [1], the AC50 was 7.31 µM [falling, single point].

Values taken from PubChem BioAssay AID493014 (National Center for Advancing Translational Sciences (NCATS), 2011).
